The list is a part of this screen's results and no random one: it is rich in T/C values a quarter to a half above the control, in often repeated tests (any T/C) and in doses without a T/C. Further doses and runs are listed elsewhere. T/C is the treated group as % of the vehicle group. Some doses have a count of surviving animals in place of a T/C: the source files T/C as zero there, which appears to mark a toxic dose or a test without result, not a measured value. Some doses without a T/C left all or most animals alive at the check, yet need not have been tolerated: the source hardly ever lists a survival T/C far under the control, and the zero likely stands for such cases as well. Counts of survivors are from the toxicity check (mostly the fifth day) where no day follows; animals may have died later. Schedules are NCI's codes, read here as Q, the interval in days (D) or hours (H), X, the number of doses. Some schedules carry Z or #; the key to these is not given. Some entries hold several experiments; their values stand side by side, smallest first. Where survival is the endpoint, this PubChem deposit counts one and a half times the control or more as active, and values a quarter to a half above the control carry no call in these data; other NCI protocols may use other cut-offs. Some T/C values are followed by the survivors on the day toxicity was checked, most often the fifth; without a count, all were alive then.
Tested on: L1210 leukemia ip in BDF1 mice, survival T/C
Experiment: NCI In Vivo Anticancer Drug Screen. Data for tumor model L1210 Leukemia (intraperitoneal) in B6D2F1 (BDF1) mice
Settings: T/C endpoint: median survival time, higher T/C = longer survival

CN(C)/N=N/c1nc[nH]c1C(N)=O
T/C (dose: 320.0 mg/kg/injection, schedule: Q01DX009 (ip), vehicle: Klucel (hydroxypropylcellulose) (HPC)): 145 % of control | T/C (dose: 320.0 mg/kg/injection, schedule: Q01DX015 (ip), vehicle: Klucel (hydroxypropylcellulose) (HPC)): 135 % of control | T/C (dose: 400.0 mg/kg/injection, schedule: Q01DX009 (ip), vehicle: Klucel (hydroxypropylcellulose) (HPC), evaluated on day 24): 166 % of control | T/C (dose: 400.0 mg/kg/injection, schedule: Q01DX009 (ip), vehicle: Klucel (hydroxypropylcellulose) (HPC), evaluated on day 30): 133 and 138 % of control | T/C (dose: 400.0 mg/kg/injection, schedule: Q01DX009 (ip), vehicle: Klucel (hydroxypropylcellulose) (HPC), evaluated on day 40): 122 % of control | survivor count (dose: 400.0 mg/kg/injection, schedule: Q01DX009 (ip), vehicle: Klucel (hydroxypropylcellulose) (HPC)): 8 of 8 | T/C (dose: 400.0 mg/kg/injection, schedule: Q01DX017 (ip), vehicle: steroid suspending solution, evaluated on day 5): 92 % of control | T/C (dose: 400.0 mg/kg/injection, schedule: Q01DX017 (ip), vehicle: steroid suspending solution, evaluated on day 30): 92 [6 of 8 alive] and 144 % of control | T/C (dose: 400.0 mg/kg/injection, schedule: Q01DX017 (ip), vehicle: steroid suspending solution, evaluated on day 40): 138 % of control | T/C (dose: 400.0 mg/kg/injection, schedule: Q01DX017 (ip), vehicle: steroid suspending solution, evaluated on day 45): 138 % of control | T/C (dose: 400.0 mg/kg/injection, schedule: Q01DX017 (ip), vehicle: steroid suspending solution, evaluated on day 50): 144 % of control | T/C (dose: 400.0 mg/kg/injection, schedule: Q01DX017 (ip), vehicle: steroid suspending solution, evaluated on day 54): 122 [7 of 8 alive] and 150 % of control [7 of 8 alive] | T/C (dose: 400.0 mg/kg/injection, schedule: Q01DX017 (ip), vehicle: steroid suspending solution, evaluated on day 60): 111 % of control | T/C (dose: 400.0 mg/kg/injection, schedule: Q01DX017 (ip), vehicle: steroid suspending solution, evaluated on day 69): 133 % of control | T/C (dose: 500.0 mg/kg/injection, schedule: Q01DX009 (ip), vehicle: Klucel (hydroxypropylcellulose) (HPC), evaluated on day 5): 101 and 137 % of control | T/C (dose: 500.0 mg/kg/injection, schedule: Q01DX009 (ip), vehicle: Klucel (hydroxypropylcellulose) (HPC), evaluated on day 27): 101 % of control [7 of 8 alive] | T/C (dose: 500.0 mg/kg/injection, schedule: Q01DX009 (ip), vehicle: Klucel (hydroxypropylcellulose) (HPC), evaluated on day 30): 95 [6 of 8 alive], 136, 155 % of control | T/C (dose: 500.0 mg/kg/injection, schedule: Q01DX009 (ip), vehicle: Klucel (hydroxypropylcellulose) (HPC), evaluated on day 33): 172 % of control | T/C (dose: 500.0 mg/kg/injection, schedule: Q01DX011 (ip), vehicle: Klucel (hydroxypropylcellulose) (HPC), evaluated on day 5): 131 % of control | T/C (dose: 500.0 mg/kg/injection, schedule: Q01DX011 (ip), vehicle: Klucel (hydroxypropylcellulose) (HPC), evaluated on day 46): 127 % of control | T/C (dose: 500.0 mg/kg/injection, schedule: Q01DX012 (ip), vehicle: Klucel (hydroxypropylcellulose) (HPC), evaluated on day 5): 146 % of control | T/C (dose: 500.0 mg/kg/injection, schedule: Q01DX012 (ip), vehicle: Klucel (hydroxypropylcellulose) (HPC), evaluated on day 46): 144 % of control | T/C (dose: 500.0 mg/kg/injection, schedule: Q01DX015 (ip), vehicle: Klucel (hydroxypropylcellulose) (HPC), evaluated on day 5): 96 and 99 % of control | T/C (dose: 500.0 mg/kg/injection, schedule: Q01DX015 (ip), vehicle: Klucel (hydroxypropylcellulose) (HPC), evaluated on day 7): 106 % of control | T/C (dose: 500.0 mg/kg/injection, schedule: Q01DX015 (ip), vehicle: Klucel (hydroxypropylcellulose) (HPC), evaluated on day 20): 106 % of control [7 of 8 alive] | T/C (dose: 500.0 mg/kg/injection, schedule: Q01DX015 (ip), vehicle: Klucel (hydroxypropylcellulose) (HPC), evaluated on day 33): 100 % of control | T/C (dose: 500.0 mg/kg/injection, schedule: Q01DX015 (ip), vehicle: Klucel (hydroxypropylcellulose) (HPC), evaluated on day 38): 94 % of control | T/C (dose: 500.0 mg/kg/injection, schedule: Q01DX017 (ip), vehicle: Klucel (hydroxypropylcellulose) (HPC), evaluated on day 5): 79 and 96 % of control | T/C (dose: 500.0 mg/kg/injection, schedule: Q01DX017 (ip), vehicle: Klucel (hydroxypropylcellulose) (HPC), evaluated on day 38): 100 % of control | survivor count (dose: 500.0 mg/kg/injection, schedule: Q01DX017 (ip), vehicle: Klucel (hydroxypropylcellulose) (HPC)): 8 of 8 | T/C (dose: 800.0 mg/kg/injection, schedule: Q01DX009 (ip), vehicle: Klucel (hydroxypropylcellulose) (HPC), evaluated on day 24): 127 % of control [7 of 8 alive] | T/C (dose: 800.0 mg/kg/injection, schedule: Q01DX009 (ip), vehicle: Klucel (hydroxypropylcellulose) (HPC), evaluated on day 30): 116 [5 of 6 alive] and 161 % of control | survivor count (dose: 800.0 mg/kg/injection, schedule: Q01DX009 (ip), vehicle: Klucel (hydroxypropylcellulose) (HPC)): 7 of 8 | T/C (dose: 800.0 mg/kg/injection, schedule: Q01DX017 (ip), vehicle: steroid suspending solution, evaluated on day 5): 26 % of control | T/C (dose: 800.0 mg/kg/injection, schedule: Q01DX017 (ip), vehicle: steroid suspending solution, evaluated on day 30): 127 % of control [6 of 8 alive] | T/C (dose: 800.0 mg/kg/injection, schedule: Q01DX017 (ip), vehicle: steroid suspending solution, evaluated on day 50): 105 % of control | T/C (dose: 800.0 mg/kg/injection, schedule: Q01DX017 (ip), vehicle: steroid suspending solution, evaluated on day 54): 133 % of control | survivor count (dose: 800.0 mg/kg/injection, schedule: Q01DX017 (ip), vehicle: steroid suspending solution): 2 of 8, 5 of 8, 6 of 8 | survivor count (dose: 800.0 mg/kg/injection, schedule: Q## X017 (ip), vehicle: steroid suspending solution): 2 of 8 | T/C (dose: 833.0 mg/kg/injection, schedule: Q01DX013 (ip), vehicle: Klucel (hydroxypropylcellulose) (HPC), evaluated on day 7): 129 % of control | T/C (dose: 833.0 mg/kg/injection, schedule: Q01DX013 (ip), vehicle: Klucel (hydroxypropylcellulose) (HPC), evaluated on day 24): 133 % of control [7 of 8 alive]
